We go through one sequence from paper PMC6019379, “RecA-like domain 2 of DNA-dependent ATPase A domain, a SWI2/SNF2 protein, mediates conformational integrity and ATP hydrolysis” (Bioscience Reports, 2018).

Numbering of substitutions follows the chain as printed. The exact form of at least one protein or probe is not confirmed. Protein sequences can lack the tags named with them.

What all share (assay): intrinsic tryptophan fluorescence titration
Holding throughout (details): saturating ATP; recombinant protein; protein details: His (Ni-NTA, pET-14b); folded or branched DNA

Data set [1] addresses T1, ADAAD F507W F727W (Bos taurus (bovine)) (UniProt Q9TTA5).
T1 sequence (looked up, limits assumed): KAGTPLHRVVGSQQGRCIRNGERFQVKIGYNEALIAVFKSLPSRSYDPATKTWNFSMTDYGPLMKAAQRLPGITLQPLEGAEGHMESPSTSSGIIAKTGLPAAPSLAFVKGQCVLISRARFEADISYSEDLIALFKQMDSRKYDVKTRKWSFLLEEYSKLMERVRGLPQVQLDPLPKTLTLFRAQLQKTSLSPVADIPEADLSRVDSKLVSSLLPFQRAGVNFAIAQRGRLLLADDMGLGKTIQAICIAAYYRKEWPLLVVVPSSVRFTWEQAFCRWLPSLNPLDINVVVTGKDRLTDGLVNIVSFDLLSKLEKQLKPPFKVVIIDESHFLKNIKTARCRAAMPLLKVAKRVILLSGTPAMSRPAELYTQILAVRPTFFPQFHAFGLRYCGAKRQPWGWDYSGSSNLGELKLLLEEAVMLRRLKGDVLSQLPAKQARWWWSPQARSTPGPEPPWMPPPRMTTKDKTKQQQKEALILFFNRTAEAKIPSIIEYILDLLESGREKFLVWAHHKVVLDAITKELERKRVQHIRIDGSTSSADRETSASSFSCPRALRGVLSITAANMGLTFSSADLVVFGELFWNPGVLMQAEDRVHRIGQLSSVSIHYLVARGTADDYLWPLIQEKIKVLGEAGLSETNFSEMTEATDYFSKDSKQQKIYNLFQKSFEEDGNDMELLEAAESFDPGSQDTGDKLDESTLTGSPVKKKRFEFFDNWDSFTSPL

The target in data set [2] is T2, ADAAD S558A S778A (Bos taurus (bovine)) (UniProt Q9TTA5).
T2 sequence (looked up, limits assumed): T1 sequence (looked up, limits assumed) with W507F, S558A

Data set [3] deals with T3, ADAAD H329D/D591H H549D,D811H (Bos taurus (bovine)) (UniProt Q9TTA5).
T3 sequence (looked up, limits assumed): T1 sequence (looked up, limits assumed) with H329D, W507F, D591H

Data set [4] has as its target T4, ADAAD R595H R815H (Bos taurus (bovine)) (UniProt Q9TTA5).
T4 sequence (looked up, limits assumed): T1 sequence (looked up, limits assumed) with W507F, R595H

Turning to “GCGCAATTGCGCTCGACGATTTTTTAGCGCAATTGCGC [slDNA (stem-loop DNA)]”, the Kd (usually the constant that tells how readily two partners part at equilibrium) in data set [1] amounted to 14 nM; in data set [2], 13.8 nM; in data set [3] it was 9.9 nM; in data set [4] it was 10.1 nM.
